About 7,500 (2.1%) of roughly 360,000 compounds were called active. Inconclusive means that the source gave no clear call. Such entries were picked first, then a sample of the others. The call rests on the fitted dose curve; in most records, active means well fitted inhibition curve with a large enough effect; inconclusive means small, poorly fitted or top-dose-only effect, or effect the other way; inactive means flat fitted curve, though single readings scatter. Potencies beside an inconclusive call are fits to weak or partial responses and may not hold up.
Assay: Nrf2 qHTS screen for inhibitors; further: nearly all actives have a fitted effect of over 60% in size
Details: A549 ARE-Fluc reporter, luciferase luminescence, 18-24 h; series mostly up to 46 µM
Summary of the method: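 Nrf2 function is reported as luminescence of an ARE-controlled luciferase in A549 cells. Compounds were tested at several concentrations, and a CellTiter-Fluor read on the same wells flagged cytotoxicity.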
Potency means the concentration at half of the fitted maximal effect.

SMILES | Potency
COc1ccc(/C(N)=N/OC(=O)C2CCCCC2)cc1 | inconclusive: 4.11 µM [activator, full curve]
CC(=O)NCCc1nc2ccccc2n1Cc1ccc(Cl)cc1 | inconclusive: 0.92 µM [falling, full curve]
O=C(CSc1ncc(C(F)(F)F)cc1Cl)N1CCN(S(=O)(=O)c2ccc(Cl)cc2)CC1 | inconclusive: 14.6 µM [falling, partial curve, poor fit]
N=c1nc(SCCC(=O)O)ss1 | inconclusive: 14.6 µM [falling, partial curve]
COc1ccccc1CNC(=O)c1cccc(N(C)C)c1 | inactive
COC(=O)c1cc(OC)c(OC)cc1NCC(=O)Nc1ccc(OC)c(OC)c1 | inconclusive: 32.6 µM [falling, single point]
COC(=O)c1ccc(CN2CCCCC2)cc1 | inconclusive: 11.6 µM [falling, partial curve]
CC(C)(C)OC(=O)N1CCN(c2nc(-c3cccs3)nc3ccccc23)CC1 | inconclusive: 9.2 µM [falling, partial curve, poor fit]
Cc1ccc(NCC(=O)N/N=C/c2ccncc2)cc1 | inconclusive: 25.9 µM [activator, partial curve, poor fit]
COc1cc(Cl)c(C)cc1NC(=O)c1ccc2c(c1)OCO2 | inconclusive: 10.3 µM [activator, partial curve]
CCN1CCc2nc3sc(C(=O)c4ccccc4)c(N)c3cc2C1 | inconclusive: 2.91 µM [activator, full curve]
COc1cc(OC)c(NC(=O)N2CCOCC2)cc1Cl | inactive
Cc1cccc(C)c1NC(=O)/C(C#N)=C/c1ccc(-c2ccc(C(=O)O)cc2)o1 | inconclusive: 0.731 µM [activator, full curve, poor fit]
COc1ccc2c(=O)c(-c3nc(C)cs3)coc2c1 | inconclusive: 1.3 µM [activator, full curve]
CCOC(=O)N1CCN(S(=O)(=O)c2c(C)nc3sccn3c2=O)CC1 | inactive
Cc1onc(-c2c(Cl)cccc2Cl)c1C(=O)N/N=C(\N)COc1ccc(Cl)cc1 | active: 8.2 µM
CC(=O)Nc1ccc(S(=O)(=O)N2C3CCCC2CC(NC(=O)C2CCCCC2)C3)cc1 (configuration not stated) | inconclusive: 13 µM [falling, partial curve, poor fit]
CCOC(=O)c1nnn2c1nc(N1CCN(c3ccccc3)CC1)c1ccccc12 | inconclusive: 20.6 µM [falling, partial curve]
CCOc1cc(C2Nc3ccccc3C(=O)N2Cc2ccco2)ccc1OCc1ccccc1Cl (configuration not stated) | inconclusive: 20.6 µM [falling, single point]
Cc1ccc(CNC(=O)C2CCCCN2S(=O)(=O)c2ccc(F)cc2)cc1 (configuration not stated) | inactive
Cc1ccc(OCC(=O)NCc2cccs2)c([N+](=O)[O-])n1 | inconclusive: 29.1 µM [activator, single point]
CC12CCC(C(=O)N3CCC(Cc4ccccc4)CC3)(C(=O)C1=O)C2(C)C (configuration not stated) | inconclusive: 18.4 µM [falling, partial curve, poor fit]
Cc1ccc(NC(=O)CSc2nc(-c3ccc(C(C)(C)C)cc3)nc3cc(=O)[nH]n23)cc1C | inconclusive: 9.2 µM [activator, partial curve]

SMILES | Potency
COc1cccc2c(N/N=C/c3ccc(O)c(O)c3)cc(C)nc12 | inactive
Cc1ccc(S(=O)(=O)N(C)c2ccc(C(=O)Nc3cccc(C)n3)cc2)cc1 | inconclusive: 25.9 µM [falling, partial curve]
Cc1occc1-c1nnc(SCC(=O)c2ccc(F)cc2)n1Cc1ccco1 | inactive
O=C(/C=C/c1ccc(S(=O)(=O)N2CCOCC2)cc1)N1CCN(c2ccc(F)cc2)CC1 | inconclusive: 10.3 µM [falling, partial curve, poor fit]
COc1ccc(OC)c(C(=O)COC(=O)C2CC3CCCC(C2)C3=O)c1 (configuration not stated) | inconclusive: 29.1 µM [activator, single point]
Cc1cc(C)nc(Nc2n[nH]c(-c3ccccc3C)n2)n1 | inconclusive: 29.1 µM [activator, single point]
O=C(CSc1nc(Nc2ccccc2)nc(N2CCOCC2)n1)Nc1cccc([N+](=O)[O-])c1 | inconclusive: 25.9 µM [falling, partial curve, poor fit]
O=C(COC(=O)c1ccco1)NCc1ccc(Cl)cc1Cl | inactive
COc1ccc(OCCn2c(C(C)Oc3ccccc3)nc3ccccc32)cc1 (configuration not stated) | inconclusive: 29.1 µM [falling, single point]
CCc1nc2ccc(C(=O)N(C)CC(=O)Nc3ccc(Cl)c(C(F)(F)F)c3)cc2nc1CC | inconclusive: 18.4 µM [falling, single point]
N=C1/C(=C\c2ccc(OC(=O)c3ccc(F)cc3)cc2)C(=O)N=C2SC(N3CCCC3)=NN12 | inconclusive: 7.31 µM [falling, partial curve, poor fit]
COc1cc(NC(=S)NCCc2c[nH]c3ccccc23)c(OC)cc1Cl | inconclusive: 29.1 µM [falling, single point]
CC1(c2ccccc2)NC(=O)N(CC(=O)Nc2ccc(S(N)(=O)=O)cc2)C1=O (configuration not stated) | inconclusive: 3.26 µM [activator, partial curve, poor fit]
Clc1ccc(SCc2nc3ccccc3[nH]2)cc1 | inconclusive: 29.1 µM [falling, single point]
C=CCn1c(SCC(=O)c2cccs2)nc2sc(C)cc2c1=O | inactive
Cc1cc(N/N=C/c2ccccc2O)c2ccccc2n1 | active: 18.4 µM
Cn1ncc(Br)c1C(=O)Nc1c(F)c(F)cc(F)c1F | inconclusive: 11.6 µM [activator, partial curve]
CCCOc1ccc(/C=C/C(=O)Nc2ccc([N+](=O)[O-])cc2C)cc1 | inconclusive: 29.1 µM [falling, single point]
O=C1ON=C(c2ccccc2)/C1=C/c1ccccc1 | inconclusive: 5.8 µM [activator, partial curve, poor fit]
Cn1cc(C(=O)N/N=C/c2c(O)ccc3ccccc23)ccc1=O | inconclusive: 29.1 µM [falling, single point]
CC(=O)Nc1ccc(NC(=O)c2ccccc2Sc2ccc([N+](=O)[O-])cc2Cl)cc1 | inconclusive: 29.1 µM [activator, single point]
CCOC(=O)CC(=O)CSc1ccc2nnc(-c3cccc(F)c3)n2n1 | inconclusive: 18.4 µM [falling, single point]
CC(c1ccccc1)N1C(=O)c2ccc(C(=O)NCc3cccnc3)cc2C1=O (configuration not stated) | inactive

Individual results from the list:
Under Potency, N=C1/C(=C\c2ccc(OC(=O)c3ccc(F)cc3)cc2)C(=O)N=C2SC(N3CCCC3)=NN12 is listed with inconclusive: 7.31 µM [falling, partial curve, poor fit]
Under Potency, O=C(CSc1nc(Nc2ccccc2)nc(N2CCOCC2)n1)Nc1cccc([N+](=O)[O-])c1 is listed with inconclusive: 25.9 µM [falling, partial curve, poor fit]
Under Potency, C=CCn1c(SCC(=O)c2cccs2)nc2sc(C)cc2c1=O is listed with inactive
Under Potency, Cn1ncc(Br)c1C(=O)Nc1c(F)c(F)cc(F)c1F is listed with inconclusive: 11.6 µM [activator, partial curve]

Additional entries.

SMILES | Potency
O=C(Oc1ccc(Cl)c2cccnc12)c1ccco1 | inactive
Cn1nnc(NC(=O)c2ccc([N+](=O)[O-])cc2Cl)n1 | inconclusive: 25.9 µM [activator, single point]
CCN1CCN(C(=O)c2cc(COc3ccc(C(C)=O)cc3OC)on2)CC1 | inconclusive: 2.91 µM [activator, full curve]
Cc1nc2nc(NCc3cccc(Cl)c3)[nH]n2c(=O)c1Cc1ccccc1 | inactive
CCOc1ccc2nc(N3CCCC(C(=O)NCCCOC)C3)sc2c1 (configuration not stated) | inconclusive: 0.326 µM [activator, full curve, poor fit]
O=C1C(Cl)=C(NCCc2ccccc2)C(=O)c2ccccc21 | inactive
CCOC(=O)c1c(NC(=O)CC)sc(C(=O)N2CCCCC2)c1C | inactive
COC(=O)c1ccc(Cn2c(SCc3ccccc3F)nc3ccncc32)cc1 | inconclusive: 29.1 µM [activator, single point]
O=S1(=O)N=C(OCc2ccccc2)c2ccccc21 | inconclusive: 14.6 µM [activator, partial curve, poor fit]
Cc1occc1-c1nnc(SCC(=O)N2CCN(c3ccc(F)cc3)CC2)n1C | inconclusive: 25.9 µM [falling, partial curve]
C/C(=N\NC(=O)c1ccccc1OCCOc1ccccc1)c1ccccc1F | inconclusive: 25.9 µM [falling, single point]
O=C(CSc1nc2nc(-c3cccs3)cc(C(F)(F)F)c2c(=O)[nH]1)Nc1ccc(F)c(F)c1 | inconclusive: 23.1 µM [falling, single point]
CCc1ccc(OC(=O)Nc2ccccc2)cc1 | inconclusive: 7.31 µM [activator, partial curve]
COc1cccc(CN(C(=O)c2ccc(C(C)(C)C)cc2)C2CCS(=O)(=O)C2)c1 (configuration not stated) | inactive
O=C1/C(=C/c2ccc([N+](=O)[O-])cc2)C=C(c2ccccc2)N1c1ccc(O)cc1 | inconclusive: 23.1 µM [falling, single point]
O=C(NC1CCCN(c2ccc(C(F)(F)F)cn2)C1)c1ccnc(Cl)c1 (configuration not stated) | inconclusive: 23.1 µM [falling, single point]
O=C1OCCN1C(=O)[C@H]1[C@H](c2ccc(Cl)cc2)C(c2cccc(Cl)c2)=NN1c1ccc(Br)cc1 | inconclusive: 18.4 µM [falling, single point]
OC1(c2ccccc2)CCN(Cc2ccccc2)CC1 | inactive
COc1ccc(C(=O)Nc2nnc(-c3cccs3)s2)cc1 | inconclusive: 29.1 µM [activator, single point]
Cc1ccccc1C(=O)NC(=S)Nc1ccc(Oc2ccc(Cl)cc2)cc1 | inconclusive: 16.4 µM [falling, single point]
COc1ccc(C(=O)C2CCN(C(=O)Nc3ccccc3C)CC2)cc1 | inconclusive: 16.4 µM [falling, partial curve, poor fit]

Reference: PubChem BioAssay AID504444 (National Center for Advancing Translational Sciences (NCATS), 2011)
